Test results as given in US20130172529 (published 2013).

Key:
[1] = general procedure: Fmoc solid-phase peptide synthesis; 2-chlorotrityl-type resin; HOBT/DIPCDI; conditions: whole synthesis
[2] = Fmoc solid-phase peptide synthesis; 2-chlorotrityl-type resin; HOBT/DIPCDI; conditions: whole synthesis

Row | Substance | crude yield [1] | difficulty met [2] | final purity (method not given) [1] | isolated yield [1] | outcome [1]
1 | Ac-SDAAVDTSSEITTKDLKEKKEVVEEAEN-OH | 40% | – | – | – | –
2 | Ac-SDKPDMAEIEKFDKSKLKKTETQEKNPLPSKETIEQEKQAGES-OH | – | low purity synthesis crude product, unviable for an industrial process | 99% | 50% | gave rise to gels that blocked the reaction. The end product could not be identified
